Data source: PubChem BioAssay AID504774 (Drosophila RNAi Screening Center, 2011)
The deposit covers about 23,000 reagents; this is a random part of those that have a named target and a result. 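Values are quantile-normalised luminescence on an arbitrary scale; higher means more cells surviving MMS.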 Names joined by + are all predicted targets of the reagent. Not all columns of the deposit are shown. No sequences are given here.

Purpose: 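Fly genes whose loss alters survival after alkylation damage to DNA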 (primary screen)
Cells: Drosophila Kc167 cells
Knock-down reagent: long dsRNA against Drosophila genes, about 0.25 µg dsRNA per well
Duration: about 6 days: 3 days knock-down, then 3 days with or without MMS
Conditions: methyl methanesulphonate 0.004% (w/v) for 3 days after knock-down
Read-out: 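ATP-dependent luminescence as a measure of live cells in MMS-exposed wells, quantile normalised within each plate, with replicate values also given as a mean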
Direction: mean viability with MMS: higher = more surviving cells after MMS

CG34203 — mean viability with MMS: 3.58e6
CG5391 — mean viability with MMS: 3.54e6
Dpit47 — mean viability with MMS: 3.32e6
CG15390 — mean viability with MMS: 3.53e6
CG33003 — mean viability with MMS: 3.69e6
CG15719 — mean viability with MMS: 3.68e6
Sgs7 — mean viability with MMS: 3.48e6
pigeon — mean viability with MMS: 3.60e6
egh — mean viability with MMS: 4.03e6
CG4927 — mean viability with MMS: 3.57e6
CG2736 — mean viability with MMS: 3.56e6
CG9743 — mean viability with MMS: 3.44e6
dlt — mean viability with MMS: 3.52e6
Rab1 — mean viability with MMS: 3.53e6
CG17292 — mean viability with MMS: 3.38e6
Vps50 — mean viability with MMS: 3.67e6
Saf-B — mean viability with MMS: 3.51e6
RpS10a — mean viability with MMS: 3.57e6
RecQ4 — mean viability with MMS: 3.30e6
Fum1 — mean viability with MMS: 3.55e6
CG13326 — mean viability with MMS: 3.38e6
CG11373 — mean viability with MMS: 3.62e6
CR11386 + CR33222 — mean viability with MMS: 3.51e6
CG10147 — mean viability with MMS: 3.54e6

4 entries from above in another layout.
predicted target | mean viability with MMS
pigeon | 3.60e6
egh | 4.03e6
CG4927 | 3.57e6
CG2736 | 3.56e6
